Data taken from publication PMC11665464.
The exact form of at least one protein or probe is not confirmed. For some of these results: Weaker means in comparison with the reference protein, sequence or condition of that experiment. At least one verdict was read from the data and is not stated in words by the source.

How the values were obtained:
[1] = target: ALYREF-10E R20E,R23E,R27E,R29E,R31E,R217E,R220E,R224E,R226E,R228E (human) (UniProt Q86V81); assay: EMSA; conditions: 35 mM Tris-HCl pH 7.5, 1 mM DTT, 100 ug/ml BSA, 1 mM MgCl2, 100 mM KCl, 10 min at 30 C, 5 nM nucleic acid, gel at 4 C, recombinant protein, protein details: His6
ALYREF-ΔNC (human) = ALYREF-ΔNC (human) (UniProt Q86V81); assay: EMSA; conditions: 35 mM Tris-HCl pH 7.5, 1 mM DTT, 100 ug/ml BSA, 1 mM MgCl2, 100 mM KCl, 10 min at 30 C, 5 nM nucleic acid, gel at 4 C, recombinant protein, protein details: His6
[2] = label: 32P, single-stranded DNA

Sequence	binding result ([1]; label: 32P on one strand)	binding result (ALYREF-ΔNC (human); label: 32P on one strand)	binding result ([1]; label: 32P)	further results
GGUCCCACCACCAGGUGGGCAAAGAUGUCC / GGACATCTTTGCCCACCTGGTGGTGGGACC [30-mer RNA-DNA hybrid]	–	–	–	binding result ([1]; label: 32P on RNA strand, DNA:RNA hybrid): binds more weakly
GGTCCCACCACCAGGTGGGCAAAGATGTCC (double strand) [30-mer dsDNA]	binds more weakly	binds	–	–
GGUCCCACCACCAGGUGGGCAAAGAUGUCC / GGACAUCUUUGCCCACCUGGUGGUGGGACC [30-mer dsRNA]	binds more weakly	binds	–	–
GGTCCCACCACCAGGTGGGCAAAGATGTCC [30-mer ssDNA]	–	–	–	binding result [1, 2]: binds more weakly; binding result (ALYREF-ΔNC (human); [2]): binds
GGUCCCACCACCAGGUGGGCAAAGAUGUCC [30-mer ssRNA]	–	–	binds more weakly	binding result (ALYREF-ΔNC (human); label: 32P): binds
CATTGCATATTTAAAACATGTTGGATCCCACGTTGCATGCTGATAGCCTACTAGAGCTGCATGAATTCAAATGACCTCTTATCAAGTGAC / GTCACTTGATAAGAGGTCATTTGAATTCATGGCTTAGAGCTTAATTGCTGAATCTGGTGCTGGGATCCAACATGTTTTAAATATGCAATG / GCACCAGAUUCAGCAAUUAAGCUCUAAGCCGCUGACGGCUCGAUGCUGAUCGUAGCAUCG [3' R-loop (nonmigratable)]	–	–	binds more weakly	–
